# The whole screen tested about 52,000 sequences, of which about 210 (0.4%) were called active.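 Rule for the calls: active = gene whose silencing raises cell survival under the drug, median off-target-corrected z-score across its silencing RNAs 2 or more; inactive = the rest.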 This is one part of the list.
# Test: Resistance to Poly (ADP-Ribose) Polymerase inhibitor: Gene Identification via Genome-wide siRNA Screen
# Settings: mouse BRCA2 R2336H ES cells, olaparib, CellTiter-Glo viability; stronger effect = higher value
# Procedure, shortened: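 Mouse BRCA2 R2336H ES cells were reverse-transfected with siRNA (20 nM final), treated at 48 h with 500 nM olaparib, and read by CellTiter-Glo after 72 h. Scores: MAD-based z per siRNA, median per gene, seed off-target correction.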
row,Sequence,z-score
1,GAGCACAGUGCACGACCAATT against Mcfd2,inactive: -0.416
2,GGAAGUUGAGAGCUUAAAGTT against Pank3,inactive: 0.688
3,CGCGCAGUGAAUAGCCUUCTT against AI413782,inactive: -0.46
4,GGGCAAUGUUCAGACUCUCTT against D930050H05Rik,inactive: -0.248
5,GGCUCGGACCAAAAAAAUUTT against 5730528L13Rik,inactive: -0.283
6,GGGACUUUCGUAAUAAACCTT against Lman1,inactive: 1.16
7,UUUUUUUACUCAGUCCUCATT against Olfr538,inactive: 1.88
8,GCUAGCAACAUCAUUGAUGTT against 2400001E08Rik,inactive: -0.72
9,GCGUAUUUAUCAGAGUUCATT against BC028975,inactive: 0.937
10,GGAAACAUAACCUUCAAUGTT against Wdr3,inactive: -0.336
11,GGAGCUGAAGACCACAAAGTT against 1700021K02Rik,inactive: -0.128
12,GGAAUCCAGCUUCGAUGUCTT against Ciapin1,inactive: -0.448
13,GCUCAGUUUCUCAUGAAACTT against 5830405N20Rik,inactive: 0.717
14,GGGCAAUGUGCUACACCAUTT against Olfr640,inactive: 0.306
15,CCCAUCACUUGAUUGCUUUTT against Kbtbd3,inactive: -0.809
16,GGACAGCAUUAACAUUGUATT against Fbxo22,inactive: -0.0485
17,GGGCCUUCUGAUUUAAAAGTT against Slc43a3,inactive: 0.104
18,AAUCCUGAUGCUACGCAUGTT against Phkg2,inactive: 1.76
19,GGAUUCCCUAUCCCAUACCTT against Araf1,active: 4.36
20,GGAGCUAAUCGCACUUAAATT against Tnnt3,inactive: -1.2
21,GCCCAACUUUAAUCUUAUATT against D630039A03Rik,inactive: 0.651
22,CCCAAGCCUACCUUACGAGTT against Hipk2,inactive: 0.926
23,GGAGUUUAAGAAGACGCACTT against Slc26a3,inactive: 0.0188
24,CGCUGUGCUGAGCUUACUUTT against D17H6S53E,inactive: 0.556
25,GGAUCGAACUGCCAUUGCUTT against A930104D05Rik,inactive: -2.28
26,GGAGAGUGACUUGCAUUAUTT against 2310030G06Rik,inactive: -0.736

row,Sequence,z-score
1,GGAAACCUUUGAUUGUUCATT against Gm225,inactive: -1.77
2,GCACAACGACCUUUCCAGGTT against Chst12,inactive: 0.507
3,GGACUUCUUCUAUUUCAUATT against BC029169,inactive: 0.891
4,CCCAGUUGAACAGAUUCCUTT against Olfr357,inactive: -0.67
5,GCCGAGUGAAUGAAAGGACTT against 4930579J09Rik,inactive: 0.843
6,GGCAUCGUCACCAAACUGUTT against Fgf11,inactive: -0.551
7,GCUUCACCUGACAAUGACUTT against Dsipi,inactive: -0.426
8,GCAAGUAUGAGUGUCCCAUTT against Traf6,inactive: -0.377
9,GCUACUGGUUGGGUUGAAGTT against Tbcd,inactive: -1.03
10,CCGAUUGAAUUACUCAGCATT against Bcas2,inactive: -1.37
11,GCCCACAAGGAGUGCAUGATT against Cox17,inactive: -2.05
12,GGUACACUUUGUGCCUGGCTT against 2010002H18Rik,inactive: -0.828
13,GGAAGUUCGAUGUUCCUAGTT against 2410030J07Rik,inactive: 0.957
14,GCACCAAUUCCCUAACUGGTT against C230093N12Rik,inactive: -1.49
15,GGACGAAUGCUCAGGAGGUTT against BC034076,inactive: 0.0748
16,GGACAACCUUUACUUCUCUTT against Psx2,inactive: -0.591
17,GGACAAAAACAAAUGUGAGTT against 4933417A18Rik,inactive: -0.31
18,CGGAUGAUGUAUUUAAAGATT against Ftcd,inactive: 0.28
19,GGAGGCAGUGUUUUGUCAATT against Fgd4,inactive: 1.73
20,GCGACUGAUUCCUAUUAAATT against Myd88,inactive: 0.152
21,GGCACAGAUGUUUUGAGAATT against Surf4,inactive: -0.103
22,UUGAUUUGGUAGCCUGCUCTT against Olfr1303,inactive: -1.35
23,GGUAACUCCAUUUUAUAGCTT against Adamts12,inactive: -0.555
24,GGAGCAGACUUUAAAAUGATT against Stau1,inactive: -0.151
25,GGGCUGUCGUGAUUUUUGCTT against Grm7,inactive: -0.332
26,GGGAGAACCAGCACAACAUTT against Sdpr,inactive: 0.181

row,Sequence,z-score
1,CGCUAUGGAUAUAAACCAUTT against Pla2g12a,inactive: -0.788
2,CCCAGUGUCAUUCAGUAUUTT against Phactr3,inactive: 0.768
3,GGAGCUUGACAUUCUGGAATT against 4632413C14Rik,inactive: 1.77
4,GCUUGAAUCCGAUUUGUUATT against 4921521N14Rik,inactive: -0.0999
5,CGGUAAGUUAAAGAAGACATT against Keo4,inactive: 0.627
6,GCAGCUGUCAUGUAUACAGTT against Olfr59,inactive: -1.53
7,GGUUUGGCCUGGAGUGAAATT against Olfr126,inactive: -2.68
8,GGGCUAAAGUAUAUCCAUUTT against Mapk1,active: 1.14
9,GCCAAUACCAAUCAAGCUGTT against Brunol4,inactive: -0.848
10,CCUAUUCAUGCGUCUGUGGTT against Atp6v0c,inactive: -1.69
11,GGACCAGGUAGAGCAAUUUTT against BC034099,inactive: 0.676
12,GAUAUGUUCGACAACGGCATT against Foxd1,inactive: -1.08
13,CCAAAUGGUGGUGCUGAGUTT against Jam4,inactive: 0.705
14,GGAUCAAUGAUACAACUGATT against Il1r1,inactive: -0.0968
15,GGACAAAGAAGACUCCCGATT against Dpf2,inactive: 0.386
16,GCCCAAUAGCACAAAGAACTT against Mlr2,inactive: 0.852
17,GGUCCUAGGUACAAUCACUTT against Slfn10,inactive: -1.07
18,GGAAACAAUUCAUGAGCAUTT against 4933424B01Rik,inactive: 2.48
19,GGAGGACCUAGAUGUCAAATT against 1110021E09Rik,inactive: -1.16
20,GGAAAUUCAUGUGACUAUGTT against Sybl1,inactive: 1.62
21,GGAAGUUUCCAGCAAGACATT against Spn,inactive: -2.7
22,GGACAAUGUGGACUUUGAUTT against 9530090G24Rik,inactive: -1.46
23,GCCUAUGAACUUAAUGGCCTT against Zfp180,inactive: 1.68
24,CGGUUGACAGGUAUAUCGCTT against Gpr139,inactive: -0.529
25,GGUUUCAAAGAGUCUCAUUTT against BC006583,inactive: -0.0448
26,GUUGUUUAUAGCUUAAGGATT against Olfr1450,inactive: -0.596

# Copied from the list.
# CCCAGUGUCAUUCAGUAUUTT against Phactr3 – z-score: inactive: 0.768
# GUUGUUUAUAGCUUAAGGATT against Olfr1450 – z-score: inactive: -0.596
# GCCUAUGAACUUAAUGGCCTT against Zfp180 – z-score: inactive: 1.68
# GGAUCAAUGAUACAACUGATT against Il1r1 – z-score: inactive: -0.0968

# (list continues)

row,Sequence,z-score
1,GGACAAUAGGAGCCUUUAATT against V1rh20,inactive: -0.452
2,GGUUUGUUAGGCAUGAUAATT against Adamts16,inactive: -0.0921
3,GGUAACCUGAUGGCUGAAATT against AI839920,inactive: 1.75
4,GAGCUGGGAGGUUUCACAGTT against Bzrp,inactive: -0.489
5,CUCUAUGGACUAUAGCUAATT against Tas2r109,inactive: 0.234
6,GCGUGUUUGACCGACACGATT against Plekha3,inactive: 0.585
7,GCGGGAGACAGAAUACGGUTT against Igfbp3,inactive: 0.491
8,GGAGGAGCUACUGAAAGAUTT against D19Wsu162e,inactive: 0.754
9,CGGAGUUUUCAAACAUAUGTT against Anapc13,inactive: 0.841
10,GCUUAAGAUUGGAAUACUATT against E130113K22Rik,inactive: -1.28
11,GGGAAUUUCACACUGAGUATT against Tpm4,inactive: -1.29
12,GCCGUUCACCAUGAAAUGGTT against Prkci,inactive: 0.78
13,GGAAAUCGAGAGAAAUUCATT against Tead2,inactive: 0.624
14,GGACAAGAGGAGCUUUUGCTT against Idb3,inactive: -0.686
15,GGAAGAUGGCAAUAAUAACTT against 2010012O05Rik,inactive: 0.402
16,GGGCUAUUAAAUGAUUUCATT against Pax1,inactive: -0.101
17,GGUCUUCAGGAACCUGAGATT against Pip5k2c,inactive: -1.91
18,GGAUGAAAUGGAAGAAGAUTT against Barx2,inactive: -1.55
19,GCAUAUUUGCUCCAUUGAUTT against Olfr1162,inactive: -0.708
20,GGAUGAUUUCCAGAUCCAGTT against Vmp,inactive: -0.433
21,GGGAAUUUACCAAGUACCCTT against Nedd9,inactive: -1.05
22,GAUUCAACCUGUCCAAGCUTT against Nat6,inactive: 0.907
23,GGGAAUAUGUCUUGUGAUATT against 5330420D20Rik,inactive: 0.347
24,GUGACACCUUUAUGGAGAGTT against Olfr1271,inactive: 1.01
25,CCUACAGUACUUCAAGCGGTT against Hip1,inactive: 0.956
